The assay relates to acetic acid-induced abdominal constriction responses in mice. Also noted: species or system mouse (ICR). Conditions: mouse, in vivo, ip. Here is the method: The abdominal constriction responses induced by intraperitoneal (i.p.) injection of 0.2 mL acetic acid (0.8%), including contraction of the abdominal muscle and stretching of the hind limbs, were performed according to procedures described by Collier et al.. Mice (male, weighing 20–25 g) were pre-treated with the test samples dissolved in saline by intraperitoneal (i.p.) injection for 15 min prior to acetic acid injection. Control animals received the same volume of vehicle (saline: 0.9% sodium chloride solution). After the challenge, mice were individually placed into open polyvinyl cages (30 cm × 40 cm × 30 cm), and the abdominal constriction responses were counted cumulatively during 30 min, which was represented as the sum of constriction (S). The inhibition of pain responses was calculated by the equation as follows: inhibition of pain responses % = (Ssaline − Sdrug)/Ssaline per animal. One hundred percent corresponds to complete reversal of pain, equivalent to the non-injury value, and 0% corresponds to the value from the saline group.

The record followed here is article PMC4147587, “Synthesis and Analgesic Effects of μ-TRTX-Hhn1b on Models of Inflammatory and Neuropathic Pain” (Toxins, 2014).

Turning to `CN1CC[C@]23c4c5ccc(O)c4O[C@H]2[C@@H](O)C=C[C@H]3[C@H]1C5` [morphine, reference compound], the “inhibition of pain responses (abdominal constriction)” value turned out to be 58.3%.
